Whole data set: some 33,000 sequences, median “E-score (-0.5 to 0.5)” near -0.0059, cut for the highest 2% near 0.26. This is one part of the list.
target: T1, Cin5 (UniProt P40917); assay: PBM E-score (8-mer binding enrichment) (E-score (-0.5 to 0.5)); higher = stronger / more preferred TF binding; settings: protein concentration: 100 nM; construct: GST-full length
T1 sequence: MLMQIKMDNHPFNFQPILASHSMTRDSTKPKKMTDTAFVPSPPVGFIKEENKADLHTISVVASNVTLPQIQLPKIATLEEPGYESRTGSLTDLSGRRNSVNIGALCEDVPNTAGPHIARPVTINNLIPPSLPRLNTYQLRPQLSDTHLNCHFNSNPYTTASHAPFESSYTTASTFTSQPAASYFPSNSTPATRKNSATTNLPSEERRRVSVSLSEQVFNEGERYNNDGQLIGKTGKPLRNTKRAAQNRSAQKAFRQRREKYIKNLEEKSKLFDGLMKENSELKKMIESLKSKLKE
Protocol: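 Universal 'all 10-mer' protein binding microarrays (Agilent AMADID 015681) probed with GST-tagged S. cerevisiae TFs (full-length or DBD) made by in vitro transcription/translation (PURExpress), about 100-200 nM. Bound TF was detected with fluorescent anti-GST. Each ungapped 8-mer (which stands for itself and its reverse complement) is scored by the PBM enrichment score (E-score), a modified Wilcoxon-Mann-Whitney statistic from -0.5 to +0.5, computed with the Universal PBM Analysis Suite. Scale: above 0.35 generally sequence-specific binding.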

| Sequence | PBM E-score |
| --- | --- |
| GGGGCTGA | -0.0283 |
| AGCATTCG | 0.0238 |
| GGATCTTA | 0.0099 |
| ATCATAAC | 0.182 |
| CTAGAAGC | -0.186 |
| CCAGTAGA | -0.0719 |
| ACAGATTA | 0.102 |
| AGGATGCC | -0.192 |
| AGTAGAAC | -0.162 |
| ACCTTAGA | 0.0107 |
| AGAAGCTG | -0.049 |
| CGGAGTCA | 0.0932 |
| AGTATAAC | -0.129 |
| CAGGGCCG | -0.0883 |
| ATTGCTGC | 0.111 |
| CAACCCTC | -0.167 |
| CCCGGCTA | -0.175 |
| GGTTAACA | 0.0603 |
| CTATTAAA | 0.00048 |
| AATTAGTG | 0.188 |
| CCTGGCAC | -0.263 |
| GAATCCCA | 0.13 |
| TCGTTCAA | 0.0414 |
| TATCCCGA | 0.125 |

| Sequence | PBM E-score |
| --- | --- |
| CAGGTCTC | -0.254 |
| CGCGCGGC | 0.152 |
| CAAAAAGC | 0.0272 |
| ATCTTAAC | 0.0469 |
| ATTGTCCA | 0.101 |
| AACAATTC | 0.111 |
| AGGTTTAG | -0.121 |
| CATGCGAC | 0.0154 |
| CAAATTTA | 0.135 |
| GAGCACAA | 0.147 |
| ACTCGTCC | -0.13 |
| CCGCCGCC | -0.108 |
| GCAAGCAA | 0.00274 |
| AATTGGAG | -0.04 |
| CTTCGAAG | -0.0184 |
| GATCGTGC | 0.0978 |
| CACCAGAC | -0.0376 |
| GAAAAGCA | -0.0262 |
| AACGGTAG | -0.0598 |
| GCACTGGC | -0.172 |
| ATGCTTAC | 0.265 |
| CCACCGCA | -0.0518 |
| TACATTCA | 0.0805 |
| TACAGACA | 0.0383 |

2 entries drawn at random from the list so far, as already listed:

| Sequence | PBM E-score |
| --- | --- |
| GCAAGCAA | 0.00274 |
| CTATTAAA | 0.00048 |

Further entries follow:

| Sequence | PBM E-score |
| --- | --- |
| TGACGACA | 0.0817 |
| CCCGCGCA | -0.00056 |
| CCTTCCGA | -0.161 |
| GGTTTTAC | -0.286 |
| CCCCTACA | -0.219 |
| ACGCAAAA | 0.0665 |
| AGTTTCAT | 0.218 |
| GCAGCATA | -0.0126 |
| ATCCTCAG | 0.0925 |
| CGCCTCGA | -0.042 |
| AACAAAGC | 0.127 |
| ATCTTGTG | 0.0155 |
| AAGGAAGT | -0.0192 |
| CATAACCG | -0.0972 |
| CCCCGGCC | -0.355 |
| ACGCGAGG | 0.0224 |
| AAGCGGTA | 0.0319 |
| CCTCTATC | -0.152 |
| AGTGTCAT | 0.138 |
| AAGATAAA | 0.232 |
| CTCATCAG | 0.166 |
| GCTTCACC | -0.2 |
| AGGACCGA | -0.0535 |
| CAGCGTGA | -0.0728 |

| Sequence | PBM E-score |
| --- | --- |
| AGGATTTA | 0.106 |
| ATGTTTAG | 0.216 |
| TCTCCCAA | -0.0907 |
| GACGAAAC | -0.0257 |
| ACATTCCC | -0.0239 |
| AGTGTGGA | -0.0179 |
| ATTCGACG | 0.119 |
| ATACCCAC | 0.11 |
| TATTCAAA | 0.0423 |
| AGGTTTGC | 0.0243 |
| ACTATGGC | 0.0781 |
| GGTGCGCA | 0.0448 |
| ACAGATGT | 0.0696 |
| GCGCGCGA | 0.104 |
| ACTTGGAG | -0.0532 |
| AGTCGACT | 0.254 |
| CGTGTAAG | 0.129 |
| TATGACCA | 0.01 |
| GATTCCAA | -0.0337 |
| ATACTATC | 0.102 |
| GCGTGCCA | -0.15 |
| CCCAGGAC | -0.289 |

Source: the supplement of paper PMC3334620
